In PMC6063487:
Results are given in words; binding and its absence hold for the method and conditions named. In cells and extracts the contact can be indirect. Some binding calls cover weakened binding; strength is not graded here. Where a sequence is shown, tags or fusion partners need not be part of it.

Target: T1, C-terminal c-Myc-tagged SEC11A (Origene) (UniProt Q9R0P6)
T1 sequence: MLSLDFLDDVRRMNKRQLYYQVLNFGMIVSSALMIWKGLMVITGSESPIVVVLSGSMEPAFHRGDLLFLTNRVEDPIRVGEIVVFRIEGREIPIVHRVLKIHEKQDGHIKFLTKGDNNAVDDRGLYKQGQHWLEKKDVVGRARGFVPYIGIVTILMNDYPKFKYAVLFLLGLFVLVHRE
Assay: co-IP; HEK293T cells transfected with C-terminal c-Myc-tagged SEC11A and C-terminal FLAG-tagged mouse NNAT; lysates immunoprecipitated with anti-c-Myc agarose; Western blot with anti-c-Myc and anti-FLAG

B1: C-terminal FLAG-tagged mouse NNAT (pcDNA3.1) (protein, UniProt Q61979 1-81)
chain: MAAVAAASAELLIIGWYIFRVLLQVFLECCIYWVGFAFRNPPGTQPIARSEVFRYSLQKLAHTVSRTGRQVLGERRQRAPN
  binding: binds
